These results are taken from the supplement of paper PMC7752906.

Where a name gives a salt, the structure may show the parent alone. Some of the results follow. This data set is noisy: repeats of one test often differ as much as different tests do.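 About 40 Schistosoma mansoni schistosomula per well were imaged over time in bright field and compared with 0.1% DMSO wells. A drug counts as a hit if its Mahalanobis distance reaches 2.47 or more, three standard deviations above the DMSO control mean. Degeneracy is the fraction of worms scored opaque.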

The subject of the assay is Schistosoma mansoni schistosomula. Description: degeneracy (percent of somules classified as degenerate/opaque); higher = more parasite degeneration/death; extreme values may be limits of the assay. Particulars: 10 µM; 72 h.
As for `O=C(Oc1ccccc1C(=O)O)c1ccccc1O` [Salsalate], the degeneracy was determined as 5.56%.
With `CCN1CCCC(OC(=O)C(c2ccccc2)c2ccccc2)C1` (stereo not given) [Piperidolate Hydrochloride] the figure was 2.94%.
With `NCCNCCNCCN` [Trientine Hydrochloride] the figure was 13%.
With `O=C(NCCN1CCOCC1)c1ccc(Cl)cc1` [Moclobemide] the figure was 6.67%.
As for `CCCC1O[C@@H]2C[C@H]3[C@@H]4CCC5=CC(=O)C=C[C@]5(C)[C@H]4[C@@H](O)C[C@]3(C)[C@]2(C(=O)CO)O1` (stereo not given in full) [Budesonide], the degeneracy stood at 6.45%.
As for `Nc1nc(N)c2nc(CNc3ccc(C(=O)N[C@@H](CCC(=O)O)C(=O)O)cc3)cnc2n1` [Aminopterin], the figure is 0%; as for `CC(C(=O)O)c1cccc(C(=O)c2ccccc2)c1` (stereo not given) [Ketoprofen], 17.2%.
As for `CCOC(=O)c1ncn2c1CN(C)C(=O)c1cc(F)ccc1-2` [Flumazenil], the figure is 15.4%; as for `C#C[C@]1(O)CC[C@H]2[C@@H]3CCc4cc(O)ccc4[C@H]3CC[C@@]21C` [Ethinylestradiol], 13.5%.
As for `CC(C)(C)NC(=O)[C@@H]1C[C@@H]2CCCC[C@@H]2CN1C[C@@H](O)[C@H](Cc1ccccc1)NC(=O)[C@H](CC(N)=O)NC(=O)c1ccc2ccccc2n1` [Saquinavir], the figure is 11.1%; as for `CCCCCN(CCCCC)C(=O)C(CCC(=O)O)NC(=O)c1ccc(Cl)c(Cl)c1` (stereo not given) [Lorglumide Sodium], 16.1%; as for `COc1ccc(C(=O)c2ccccc2)c(O)c1` [Oxybenzone], 16.7%.
Take `COc1ncnc(NS(=O)(=O)c2ccc(N)cc2)c1OC` [Sulfadoxine]: the degeneracy is 0%.
With `CC(=O)OCC(=O)[C@@]1(O)[C@H](C)C[C@H]2[C@@H]3CCC4=CC(=O)C=C[C@]4(C)[C@@]3(F)[C@@H](O)C[C@@]21C` [Dexamethasone Acetate] the figure was 8.11%; with `COc1ccc(C(=O)CC(=O)c2ccc(C(C)(C)C)cc2)cc1` [Avobenzone], 2.56%.
As for `CCN(CC)CCOc1ccc2c(c1)C(=O)c1cc(OCCN(CC)CC)ccc1-2` [Tilorone], the figure is 100%.
The molecule `O=C(CCCCCCC(=O)Nc1ccccc1)NO` [Vorinostat] gave a degeneracy of 17.1%.
As for `CC[C@H]1OC(=O)C[C@@H](O)[C@H](C)[C@@H](O[C@@H]2O[C@H](C)[C@@H](O[C@H]3C[C@@](C)(O)[C@@H](O)[C@H](C)O3)[C@H](N(C)C)[C@H]2O)[C@@H](CC=O)C[C@@H](C)C(=O)/C=C/C(C)=C/[C@@H]1CO[C@@H]1O[C@H](C)[C@@H](O)[C@@H](OC)[C@H]1OC` [Tylosin Tartrate], the figure is 2.38%.
With `C=C[C@@]1(C)CC(=O)[C@]2(O)[C@@]3(C)[C@@H](O)CCC(C)(C)[C@@H]3[C@H](O)[C@H](OC(C)=O)[C@@]2(C)O1` [Colforsin] the figure was 3.12%; with `CN(Cc1cnc2nc(N)nc(N)c2n1)c1ccc(C(=O)NC(CCC(=O)O)C(=O)O)cc1` (racemic) [Methotrexate(+/-)], 0%; with `CCN(CC)C(=S)SSC(=S)N(CC)CC` [Disulfiram], 100%.
With `C/C(=C(\CCOP(=O)(O)O)SC(=O)c1ccccc1)N(C=O)Cc1cnc(C)nc1N` [Benfotiamine] the figure was 5.56%.
As for `C[C@H](N)[C@H](O)c1cccc(O)c1` [Metaraminol Bitartrate], the degeneracy was 0%.
As for `C[C@H](N)[C@H](O)c1cccc(O)c1` [Metaraminol], the figure is 0%; as for `CC1(C)S[C@@H]2[C@H](NC(=O)C(C(=O)O)c3ccccc3)C(=O)N2[C@H]1C(=O)O` (stereo not given in full) [Carbenicillin Disodium], 8.89%.
With `O=C1CN(/N=C/c2ccc([N+](=O)[O-])o2)C(=O)N1` [Nitrofurantoin] the figure was 0%; with `Cc1ccccc1OCC(O)CO` (stereo not given) [Mephenesin], 2.22%; with `CN[C@@H]1[C@@H](O)[C@@H](O[C@@H]2[C@@H](O)[C@H](O[C@H]3OC(CN)=CC[C@H]3N)[C@@H](N)C[C@H]2N)OC[C@]1(C)O` [Sisomicin Sulfate], 0%.
With `Cc1cc(NS(=O)(=O)c2ccc(N)cc2)no1` [Sulfamethoxazole] the figure was 2.94%; with `O=C1CN(/N=C/c2ccc(-c3ccc([N+](=O)[O-])cc3)o2)C(=O)N1` [Dantrolene], 2.63%; with `CCOC(=O)n1ccn(C)c1=S` [Carbimazole], 8.57%.
As to `C(=C\c1ccccc1)/CN1CCN(C(c2ccccc2)c2ccccc2)CC1` [Cinnarazine], the degeneracy worked out at 23.5%.
With `Cc1c(-c2cnccn2)ssc1=S` [oltipraz] the figure was 100%; with `C[C@@H]1C[C@H]2[C@@H]3CCC4=CC(=O)C=C[C@]4(C)[C@@]3(F)[C@@H](O)C[C@]2(C)[C@@]1(O)C(=O)COP(=O)(O)O` [Dexamethasone Sodium Phosphate], 3.33%.
With `C[C@@H]1C[C@H]2[C@@H]3CCC4=CC(=O)C=C[C@]4(C)[C@@]3(F)[C@@H](O)C[C@]2(C)[C@@]1(O)C(=O)COP(=O)(O)O` [Dexamethasone Phosphate] the figure was 5.88%; with `CCN(CC)CCNC(C(=O)OCCC(C)C)c1ccccc1` (stereo not given) [Camylofine Dihydrochloride], 9.76%.
With `OCCN(CCO)c1nc(N2CCCCC2)c2nc(N(CCO)CCO)nc(N3CCCCC3)c2n1` [Dipyridamole] the figure was 29.2%.
In turn, `O=C(O)c1ccccc1C(=O)Nc1ccc(S(=O)(=O)Nc2nccs2)cc1` [Phthalylsulfathiazole] came in with a degeneracy of 4.17%.
As for `C[N+](C)(C)CC(=O)O` [Betaine], the figure is 0%; as for `C[C@]12CC[C@@H]3c4ccc(OC(=O)c5ccccc5)cc4CC[C@H]3[C@@H]1CC[C@@H]2O` [Estradiol Benzoate], 0%; as for `CN1CCN(C(c2ccccc2)c2ccccc2)CC1` [Cyclizine], 0%.
With `C[C@@H](O)[C@@H]1NC(=O)[C@H](CCCCN)NC(=O)[C@@H](Cc2c[nH]c3ccccc23)NC(=O)[C@H](Cc2ccccc2)NC(=O)[C@@H](NC(=O)[C@H](N)Cc2ccccc2)CSSC[C@@H](C(=O)N[C@H](CO)[C@@H](C)O)NC1=O` [Octreotide] the figure was 6.45%; with `O=C(CCCN1CCN(c2ccccn2)CC1)c1ccc(F)cc1` [Azaperone], 0%.
As for `CC1CC(OC(=O)c2ccccc2O)CC(C)(C)C1` (stereo not given) [Homosalate], the figure is 8.82%.
Regarding `N[C@@H](Cc1cc(I)c(Oc2ccc(O)c(I)c2)c(I)c1)C(=O)O` [Liothyronine], the degeneracy was 6.45%.
